Literature values as cited in US8445653B2, “Freeze-dried preparation of stabilized anthracycline compound” (Dainippon Sumitomo Pharma, priority 2002, dated 2013).
Where a name gives a salt, the structure may show the parent alone. At least one compound was matched to its structure with a doubt left.

Conditions: injection sold in Japan dissolved in distilled water for injection or physiological saline solution; cited from earlier work

For COc1cccc2c1C(=O)c1c(O)c3c(c(O)c1C2=O)C[C@@](O)(C(=O)CO)C[C@@H]3O[C@H]1C[C@H](N)[C@@H](O)[C@H](C)O1 [Epirubicin hydrochloride], the pH value is listed as 4.5-6.0.
